From doi:10.1101/2023.09.06.556408
Like-named read-outs stand apart in the source and are kept apart here. Results are given in words; binding and its absence hold for the method and conditions named. Binding seen in cells or lysates may run through a third protein. Some binding calls cover weakened binding; strength is not graded here.

The chains behind the UniProt entries cited, without tags or fusion partners. Where a name states a change or a piece, a line headed by the entry shows the natural chain unless it says otherwise.
UniProt Q8NBU5, whole entry: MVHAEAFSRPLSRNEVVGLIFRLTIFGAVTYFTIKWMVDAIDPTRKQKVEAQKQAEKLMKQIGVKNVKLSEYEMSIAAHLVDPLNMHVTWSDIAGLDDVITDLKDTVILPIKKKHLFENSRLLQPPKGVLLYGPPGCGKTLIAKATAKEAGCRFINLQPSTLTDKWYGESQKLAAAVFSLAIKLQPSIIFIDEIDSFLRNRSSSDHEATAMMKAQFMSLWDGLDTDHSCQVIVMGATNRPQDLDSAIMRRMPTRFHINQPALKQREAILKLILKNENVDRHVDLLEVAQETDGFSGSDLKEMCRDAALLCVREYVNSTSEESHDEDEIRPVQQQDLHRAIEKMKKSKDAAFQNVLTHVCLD
UniProt Q15388, whole entry: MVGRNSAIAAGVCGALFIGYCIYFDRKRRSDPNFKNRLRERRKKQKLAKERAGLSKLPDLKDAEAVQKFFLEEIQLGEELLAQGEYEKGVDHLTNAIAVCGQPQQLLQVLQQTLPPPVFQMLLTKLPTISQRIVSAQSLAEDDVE

B1: TOMM40 (protein, UniProt O96008 1-361)
chain: MGNVLAASSPPAGPPPPPAPALVGLPPPPPSPPGFTLPPLGGSLGAGTSTSRSSERTPGAATASASGAAEDGACGCLPNPGTFEECHRKCKELFPIQMEGVKLTVNKGLSNHFQVNHTVALSTIGESNYHFGVTYVGTKQLSPTEAFPVLVGDMDNSGSLNAQVIHQLGPGLRSKMAIQTQQSKFVNWQVDGEYRGSDFTAAVTLGNPDVLVGSGILVAHYLQSITPCLALGGELVYHRRPGEEGTVMSLAGKYTLNNWLATVTLGQAGMHATYYHKASDQLQVGVEFEASTRMQDTSVSFGYQLDLPKANLLFKGSVDSNWIVGATLEKKLPPLPLTLALGAFLNHRKNKFQCGFGLTIG

Key:
Assay in all cases: co-IP
[1] = target: ATPase family AAA domain containing 1 (ATAD1)-HA (human) (UniProt Q8NBU5)
ATAD1^E193Q-HA (human) = ATAD1^E193Q-HA (human) (UniProt Q8NBU5)
[2] = target: ATPase family AAA domain containing 1 (ATAD1)-HA (human) (UniProt Q8NBU5); remark: listed apart in the source

binding [1]	binding (ATAD1^E193Q-HA (human))	binding [2]	Molecule
binds	binds	binds	TOMM20 (from UniProt Q15388 1-145)
binds	–	–	B1
